Measured values as given in the supplement of paper PMC10849652.
Some of the results follow.

Amino acid sequences for entries named in this document (tags omitted). A change or cut given only in a name is not applied to a line headed by its entry.
UniProt P55199: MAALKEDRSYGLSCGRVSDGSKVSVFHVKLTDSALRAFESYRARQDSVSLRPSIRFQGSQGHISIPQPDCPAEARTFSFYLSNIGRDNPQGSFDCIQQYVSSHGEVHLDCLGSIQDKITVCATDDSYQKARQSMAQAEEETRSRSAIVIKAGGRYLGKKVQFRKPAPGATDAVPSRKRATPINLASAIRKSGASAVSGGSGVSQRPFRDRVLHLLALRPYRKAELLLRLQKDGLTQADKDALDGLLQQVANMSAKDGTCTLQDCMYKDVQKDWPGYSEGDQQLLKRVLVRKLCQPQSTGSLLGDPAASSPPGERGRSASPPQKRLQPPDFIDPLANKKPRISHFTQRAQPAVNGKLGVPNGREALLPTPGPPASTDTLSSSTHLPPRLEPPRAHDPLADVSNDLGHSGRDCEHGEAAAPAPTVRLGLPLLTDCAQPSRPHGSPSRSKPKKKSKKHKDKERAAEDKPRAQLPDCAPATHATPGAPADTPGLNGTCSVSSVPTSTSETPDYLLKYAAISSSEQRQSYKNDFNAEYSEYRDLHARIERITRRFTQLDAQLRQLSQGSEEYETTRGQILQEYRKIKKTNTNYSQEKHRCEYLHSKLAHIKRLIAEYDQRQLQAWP
UniProt Q9NQZ7: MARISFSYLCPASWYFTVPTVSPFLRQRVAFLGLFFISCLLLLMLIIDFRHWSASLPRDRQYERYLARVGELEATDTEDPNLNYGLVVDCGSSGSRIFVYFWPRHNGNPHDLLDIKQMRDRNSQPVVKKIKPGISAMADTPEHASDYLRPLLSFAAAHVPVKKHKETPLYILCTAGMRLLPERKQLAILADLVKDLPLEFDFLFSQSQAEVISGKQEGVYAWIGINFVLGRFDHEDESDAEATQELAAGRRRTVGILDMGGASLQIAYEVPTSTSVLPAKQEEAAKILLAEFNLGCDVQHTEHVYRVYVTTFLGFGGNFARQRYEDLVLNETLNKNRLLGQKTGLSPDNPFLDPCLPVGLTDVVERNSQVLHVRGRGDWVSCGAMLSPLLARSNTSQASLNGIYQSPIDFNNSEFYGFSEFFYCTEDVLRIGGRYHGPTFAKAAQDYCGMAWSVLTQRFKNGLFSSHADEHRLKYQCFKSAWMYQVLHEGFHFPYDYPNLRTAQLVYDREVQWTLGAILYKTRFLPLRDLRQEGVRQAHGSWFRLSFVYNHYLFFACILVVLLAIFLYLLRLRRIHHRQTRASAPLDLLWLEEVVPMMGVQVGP
UniProt Q9NZN4: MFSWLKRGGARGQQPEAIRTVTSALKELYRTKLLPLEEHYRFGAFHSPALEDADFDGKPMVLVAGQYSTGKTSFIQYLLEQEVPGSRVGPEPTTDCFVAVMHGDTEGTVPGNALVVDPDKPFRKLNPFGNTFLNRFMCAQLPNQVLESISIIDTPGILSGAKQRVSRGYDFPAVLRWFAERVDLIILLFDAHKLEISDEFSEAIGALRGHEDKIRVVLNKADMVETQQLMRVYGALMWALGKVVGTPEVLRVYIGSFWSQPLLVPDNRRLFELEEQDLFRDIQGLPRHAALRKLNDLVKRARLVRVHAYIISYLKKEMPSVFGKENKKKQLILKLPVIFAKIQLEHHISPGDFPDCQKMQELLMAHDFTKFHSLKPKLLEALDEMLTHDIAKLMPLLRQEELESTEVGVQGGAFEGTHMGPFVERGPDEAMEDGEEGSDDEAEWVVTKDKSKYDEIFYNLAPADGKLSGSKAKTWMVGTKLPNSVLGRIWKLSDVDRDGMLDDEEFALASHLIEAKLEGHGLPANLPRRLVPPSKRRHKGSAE
UniProt Q9H9B1: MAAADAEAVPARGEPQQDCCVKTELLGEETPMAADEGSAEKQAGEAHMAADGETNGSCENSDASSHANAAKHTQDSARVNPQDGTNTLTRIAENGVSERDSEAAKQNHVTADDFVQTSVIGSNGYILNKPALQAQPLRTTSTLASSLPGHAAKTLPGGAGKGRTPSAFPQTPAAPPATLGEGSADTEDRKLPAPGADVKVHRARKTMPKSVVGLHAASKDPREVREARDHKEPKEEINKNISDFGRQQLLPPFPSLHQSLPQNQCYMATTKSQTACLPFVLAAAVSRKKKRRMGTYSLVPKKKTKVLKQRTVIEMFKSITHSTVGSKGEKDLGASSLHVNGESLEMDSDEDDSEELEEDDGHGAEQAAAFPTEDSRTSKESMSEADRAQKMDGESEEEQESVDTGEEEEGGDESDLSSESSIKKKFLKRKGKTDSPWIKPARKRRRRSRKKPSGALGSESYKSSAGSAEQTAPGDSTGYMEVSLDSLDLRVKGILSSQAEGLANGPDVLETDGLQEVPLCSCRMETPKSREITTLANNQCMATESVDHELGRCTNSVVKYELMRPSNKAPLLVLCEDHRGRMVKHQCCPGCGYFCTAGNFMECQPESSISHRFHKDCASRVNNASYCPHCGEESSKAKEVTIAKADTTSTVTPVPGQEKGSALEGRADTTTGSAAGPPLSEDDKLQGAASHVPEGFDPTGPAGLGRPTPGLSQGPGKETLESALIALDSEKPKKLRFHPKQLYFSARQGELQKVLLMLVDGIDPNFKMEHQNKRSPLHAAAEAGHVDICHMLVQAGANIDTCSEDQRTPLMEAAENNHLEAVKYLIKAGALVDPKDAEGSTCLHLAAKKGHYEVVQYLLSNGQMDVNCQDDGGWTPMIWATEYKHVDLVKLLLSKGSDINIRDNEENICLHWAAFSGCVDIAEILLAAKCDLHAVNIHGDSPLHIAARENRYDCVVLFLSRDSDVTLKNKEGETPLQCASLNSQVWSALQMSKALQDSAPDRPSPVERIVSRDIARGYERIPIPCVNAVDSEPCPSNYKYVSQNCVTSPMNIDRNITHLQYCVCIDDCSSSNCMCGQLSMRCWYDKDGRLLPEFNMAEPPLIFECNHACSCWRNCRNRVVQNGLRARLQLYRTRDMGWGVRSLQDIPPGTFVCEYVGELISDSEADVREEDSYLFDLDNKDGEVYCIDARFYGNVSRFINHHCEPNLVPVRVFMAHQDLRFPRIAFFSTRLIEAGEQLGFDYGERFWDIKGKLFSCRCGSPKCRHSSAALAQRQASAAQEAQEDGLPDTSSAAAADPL
UniProt Q9BUP0: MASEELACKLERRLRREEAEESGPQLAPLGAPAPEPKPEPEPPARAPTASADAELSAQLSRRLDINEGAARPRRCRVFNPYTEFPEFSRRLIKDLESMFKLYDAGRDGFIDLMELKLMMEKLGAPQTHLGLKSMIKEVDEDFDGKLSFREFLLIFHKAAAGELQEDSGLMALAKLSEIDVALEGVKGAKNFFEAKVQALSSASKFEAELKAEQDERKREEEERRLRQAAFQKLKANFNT
UniProt Q9H777: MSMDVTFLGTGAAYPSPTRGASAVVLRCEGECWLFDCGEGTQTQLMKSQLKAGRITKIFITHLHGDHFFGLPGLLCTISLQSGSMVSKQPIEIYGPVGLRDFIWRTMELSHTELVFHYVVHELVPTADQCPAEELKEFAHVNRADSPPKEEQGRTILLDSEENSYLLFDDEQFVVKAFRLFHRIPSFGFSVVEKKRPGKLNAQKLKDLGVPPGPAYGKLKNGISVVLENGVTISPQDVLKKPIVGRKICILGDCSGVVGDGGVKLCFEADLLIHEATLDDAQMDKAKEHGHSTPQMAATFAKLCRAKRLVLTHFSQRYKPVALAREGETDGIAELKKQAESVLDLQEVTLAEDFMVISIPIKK
UniProt P68104, whole entry, looked up: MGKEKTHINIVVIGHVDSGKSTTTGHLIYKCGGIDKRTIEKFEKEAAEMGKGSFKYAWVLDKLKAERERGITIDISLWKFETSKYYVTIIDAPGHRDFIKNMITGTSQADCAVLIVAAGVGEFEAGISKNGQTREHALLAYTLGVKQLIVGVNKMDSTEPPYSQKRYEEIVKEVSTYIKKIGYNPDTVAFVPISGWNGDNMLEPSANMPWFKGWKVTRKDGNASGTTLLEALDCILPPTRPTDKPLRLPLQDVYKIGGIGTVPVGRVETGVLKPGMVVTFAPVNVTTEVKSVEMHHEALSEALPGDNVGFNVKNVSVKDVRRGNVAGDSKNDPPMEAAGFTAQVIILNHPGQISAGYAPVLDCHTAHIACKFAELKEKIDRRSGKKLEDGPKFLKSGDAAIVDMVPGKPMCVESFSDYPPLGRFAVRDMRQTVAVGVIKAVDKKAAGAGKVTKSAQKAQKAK
UniProt P18146, whole entry, looked up: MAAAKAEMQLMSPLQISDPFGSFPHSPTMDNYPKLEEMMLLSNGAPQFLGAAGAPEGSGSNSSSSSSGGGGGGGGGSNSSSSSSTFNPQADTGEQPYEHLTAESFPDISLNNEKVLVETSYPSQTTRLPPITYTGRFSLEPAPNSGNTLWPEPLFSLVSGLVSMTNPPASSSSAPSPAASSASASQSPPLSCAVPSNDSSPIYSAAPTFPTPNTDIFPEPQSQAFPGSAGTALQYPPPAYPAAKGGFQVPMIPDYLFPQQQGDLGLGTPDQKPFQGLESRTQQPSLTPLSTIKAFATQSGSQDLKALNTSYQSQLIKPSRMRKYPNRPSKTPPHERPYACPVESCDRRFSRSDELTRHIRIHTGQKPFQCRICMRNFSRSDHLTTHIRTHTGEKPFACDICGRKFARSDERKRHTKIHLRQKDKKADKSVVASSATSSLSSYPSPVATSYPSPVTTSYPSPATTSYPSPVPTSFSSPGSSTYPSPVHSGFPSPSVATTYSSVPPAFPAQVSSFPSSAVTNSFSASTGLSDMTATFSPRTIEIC
UniProt Q9NRA8: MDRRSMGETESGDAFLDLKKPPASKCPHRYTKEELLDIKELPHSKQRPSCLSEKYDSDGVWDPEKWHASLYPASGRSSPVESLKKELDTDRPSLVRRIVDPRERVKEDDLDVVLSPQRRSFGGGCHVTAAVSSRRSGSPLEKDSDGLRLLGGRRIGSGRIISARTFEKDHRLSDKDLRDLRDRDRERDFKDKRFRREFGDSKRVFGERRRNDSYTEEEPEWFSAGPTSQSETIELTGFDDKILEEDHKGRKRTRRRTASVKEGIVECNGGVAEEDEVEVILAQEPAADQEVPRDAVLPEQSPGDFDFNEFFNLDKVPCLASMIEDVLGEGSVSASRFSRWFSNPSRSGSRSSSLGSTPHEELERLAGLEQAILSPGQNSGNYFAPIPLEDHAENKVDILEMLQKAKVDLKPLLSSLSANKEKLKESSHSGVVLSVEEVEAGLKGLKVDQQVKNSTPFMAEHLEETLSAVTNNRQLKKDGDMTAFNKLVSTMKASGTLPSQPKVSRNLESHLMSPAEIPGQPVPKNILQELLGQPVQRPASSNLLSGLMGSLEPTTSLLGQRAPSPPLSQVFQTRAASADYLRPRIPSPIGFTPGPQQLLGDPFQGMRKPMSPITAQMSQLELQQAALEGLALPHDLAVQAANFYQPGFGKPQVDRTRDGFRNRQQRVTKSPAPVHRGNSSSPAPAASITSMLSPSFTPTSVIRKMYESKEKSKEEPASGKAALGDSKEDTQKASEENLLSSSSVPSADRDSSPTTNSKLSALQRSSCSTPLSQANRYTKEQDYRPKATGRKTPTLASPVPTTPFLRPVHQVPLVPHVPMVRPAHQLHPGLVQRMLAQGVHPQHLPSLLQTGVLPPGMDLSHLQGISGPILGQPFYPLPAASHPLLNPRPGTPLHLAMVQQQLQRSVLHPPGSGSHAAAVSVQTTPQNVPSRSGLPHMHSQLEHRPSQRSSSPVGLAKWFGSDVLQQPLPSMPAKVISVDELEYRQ
UniProt P19525: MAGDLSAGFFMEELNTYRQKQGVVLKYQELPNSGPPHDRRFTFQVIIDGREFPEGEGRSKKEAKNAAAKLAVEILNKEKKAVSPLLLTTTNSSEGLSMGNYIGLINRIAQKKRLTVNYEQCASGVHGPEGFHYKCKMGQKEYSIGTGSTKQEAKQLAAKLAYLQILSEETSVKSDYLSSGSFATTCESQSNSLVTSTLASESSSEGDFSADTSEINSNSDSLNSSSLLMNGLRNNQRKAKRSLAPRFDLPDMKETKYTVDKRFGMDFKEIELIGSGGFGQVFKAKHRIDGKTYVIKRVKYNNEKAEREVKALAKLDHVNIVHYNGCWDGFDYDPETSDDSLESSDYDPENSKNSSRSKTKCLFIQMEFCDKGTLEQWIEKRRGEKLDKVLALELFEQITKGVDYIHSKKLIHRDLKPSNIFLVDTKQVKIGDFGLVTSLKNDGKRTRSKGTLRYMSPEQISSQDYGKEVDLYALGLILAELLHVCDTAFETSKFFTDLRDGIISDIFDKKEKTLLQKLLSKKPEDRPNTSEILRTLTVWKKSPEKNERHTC
UniProt Q9H5J4: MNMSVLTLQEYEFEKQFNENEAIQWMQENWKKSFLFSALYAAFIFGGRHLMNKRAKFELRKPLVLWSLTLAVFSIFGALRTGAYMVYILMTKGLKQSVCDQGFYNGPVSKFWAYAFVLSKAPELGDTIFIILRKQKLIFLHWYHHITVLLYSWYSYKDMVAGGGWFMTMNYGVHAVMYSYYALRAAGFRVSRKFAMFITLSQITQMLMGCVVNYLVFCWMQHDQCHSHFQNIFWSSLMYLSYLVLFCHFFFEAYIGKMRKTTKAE

Columns and labels:
Test in all cases: log2 fold change, soluble protein after heating vs DMSO (PISA); higher = thermal stabilisation; K562 cells, 10 uM, 30 min; active = over 0.2 and 3.5 SD of the protein, either way, in both replicates (recomputed)
[1] = compound: CC1=C(C=C(C=C1)NC(=O)C2=CC(=CC=C2)C(C)(C)C#N)NC3=CC4=C(C=C3)N=CN(C4=O)C
Procedure, shortened: (§1)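 Quantification of soluble protein used TMTpro 16plex LC-MS/MS, with channel sums equalised. Samples were the supernatant after 21,000xg for 90 min of pooled aliquots from K562 cells (2×10^6 cells/mL) treated with 10 μM compound for 30 min, heated for 3 min over 48°C-58°C, and extracted in PBS with 0.5% NP-40 at 4°C. Values, from duplicates, describe thermal stability against control samples on a log2 fold-change scale.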

[2] = compound: CC1=C(C=C(C=C1)NC(=O)C2=CC(=CC=C2)N(C)C)NC(=O)C3=CC=C(C=C3)O
Procedure, shortened: as §1

Nexturastat A = compound: CCCCN(Cc1ccc(C(=O)NO)cc1)C(=O)Nc1ccccc1 [Nexturastat A]
Procedure, shortened: as §1

givinostat = compound: CCN(CC)Cc1ccc2cc(COC(=O)Nc3ccc(C(=O)NO)cc3)ccc2c1 [givinostat]
Procedure, shortened: as §1

barasertib = compound: CCN(CCCOc1ccc2c(Nc3cc(CC(=O)Nc4cccc(F)c4)[nH]n3)ncnc2c1)CCOP(=O)(O)O [barasertib]
Procedure, shortened: as §1

[3] = compound: CC[C@@H]1C(=O)N(C)c2cnc(Nc3ccc(C(=O)NC4CCN(C)CC4)cc3OC)nc2N1C1CCCC1
Procedure, shortened: as §1

[4] = compound: CC[C@H](C)N1C=C(C2=C(C=C(C=C21)C3=CN=C(C=C3)N4CCNCC4)C(=O)NCC5=C(C=C(NC5=O)C)C)C
Procedure, shortened: as §1

epoxomicin = compound: CC[C@H](C)[C@@H](C(=O)N[C@@H]([C@@H](C)O)C(=O)N[C@@H](CC(C)C)C(=O)[C@]1(CO1)C)NC(=O)[C@H]([C@@H](C)CC)N(C)C(=O)C [epoxomicin]
Procedure, shortened: as §1

[5] = compound: CCn1c(C(=O)N(C2CC2)C2CC2)cc2c3c(ncn3C)c(Nc3cc(C)n(C)n3)nc21
Procedure, shortened: as §1

[6] = compound: CCn1cc(-c2ccnc3[nH]c(-c4cccc(CN(C)C)c4)cc23)c(-c2ccc(NC(=O)N(C)C)cc2)n1
Procedure, shortened: as §1

rosiglitazone = compound: CN(CCOC1=CC=C(C=C1)C[C@H]2C(=O)NC(=O)S2)C3=CC=CC=N3 (racemic) [rosiglitazone]
Procedure, shortened: as §1

[7] = compound: CN1C2=C(C3=C1C(=O)N(N=C3)CC4=CC(=CC=C4)N)SC(=C2)S(=O)C
Procedure, shortened: as §1

[8] = compound: CN1CCC(CNc2ccc3ncc(-c4cccc(OC(F)(F)F)c4)n3n2)CC1
Procedure, shortened: as §1

[9] = compound: CC1=CC=C(C=C1)SC2=C3C=C(SC3=CN=C2)C(=O)N
Procedure, shortened: as §1

[10] = compound: CC1=NC(=CC=C1)C2=C(N=C(N2)C(C)(C)C)C3=CC4=NC=CN=C4C=C3
Procedure, shortened: as §1

[11] = compound: CCCS(=O)(=O)Nc1ccc(F)c(C(=O)c2c[nH]c3ncc(Cl)cc23)c1F
Procedure, shortened: as §1

[12] = compound: CCCc1cc(C)[nH]c(=O)c1CNC(=O)c1cc(-c2ccnc(N3CCN(C)CC3)c2)cc2c1cnn2C(C)C
Procedure, shortened: as §1

volasertib = compound: CC[C@@H]1C(=O)N(C)c2cnc(Nc3ccc(C(=O)N[C@H]4CC[C@H](N5CCN(CC6CC6)CC5)CC4)cc3OC)nc2N1C(C)C [volasertib]
Procedure, shortened: as §1

vemurafenib = compound: CCCS(=O)(=O)Nc1ccc(F)c(C(=O)c2c[nH]c3ncc(-c4ccc(Cl)cc4)cc23)c1F [vemurafenib]
Procedure, shortened: as §1

[13] = compound: CN(C)CC(=O)Nc1ccc2[nH]c(=O)c3ccccc3c2c1
Procedure, shortened: as §1

| Target | log2 fold change [1] | log2 fold change [2] | log2 fold change (Nexturastat A) | log2 fold change (givinostat) | log2 fold change (barasertib) | log2 fold change [3] | log2 fold change [4] | log2 fold change (epoxomicin) | log2 fold change [5] | log2 fold change [6] | log2 fold change (rosiglitazone) | log2 fold change [7] | log2 fold change [8] | log2 fold change [9] | log2 fold change [10] | log2 fold change [11] | log2 fold change [12] | log2 fold change (volasertib) | log2 fold change (vemurafenib) | log2 fold change [13] |
| --- | --- | --- | --- | --- | --- | --- | --- | --- | --- | --- | --- | --- | --- | --- | --- | --- | --- | --- | --- | --- |
| ELL (UniProt P55199) | inactive: -0.064 | inactive: -0.127 | inactive: -0.042 | inactive: 0.077 | inactive: -0.036 | inactive: -0.155 | inactive: 0.4 | inactive: -0.118 | inactive: -0.029 | inactive: -0.045 | inactive: 0.429 | inactive: 0.078 | inactive: 0.04 |  |  |  |  |  |  |  |
| ENTPD7 (UniProt Q9NQZ7) | inactive: -0.033 |  | inactive: 0.047 | inactive: 0 | inactive: -0.009 | inactive: -0.204 | inactive: 0.08 | inactive: 0.032 |  |  |  | inactive: -0.021 |  | inactive: 0.012 | inactive: 0.142 | inactive: -0.1 | inactive: -0.068 | inactive: -0.233 |  |  |
| EHD2 (UniProt Q9NZN4) | inactive: -0.037 | inactive: -0.026 | inactive: 0.003 | inactive: 0.024 | inactive: 0.03 | inactive: -0.073 | inactive: 0.027 | inactive: 0.023 |  | inactive: -0.085 |  | inactive: -0.045 | inactive: -0.002 | inactive: -0.007 | inactive: 0.059 | inactive: 0.007 | inactive: -0.024 | active: -0.243 | inactive: 0.029 | inactive: 0.007 |
| EHMT1 (UniProt Q9H9B1) | inactive: 0.031 | inactive: -0.041 | inactive: 0.098 | inactive: 0.085 | inactive: -0.121 |  |  | inactive: -0.03 | inactive: -0.077 | inactive: 0.098 | inactive: 0.123 | inactive: -0.049 | inactive: -0.074 | inactive: -0.086 | inactive: -0.053 | inactive: 0.06 | inactive: -0.225 | inactive: -0.074 | inactive: -0.059 | inactive: 0.072 |
| EFHD1 (UniProt Q9BUP0) | inactive: 0.189 |  | inactive: 0.209 |  |  |  | inactive: -0.003 | inactive: 0.217 |  | inactive: 0.094 |  | inactive: 0 | inactive: -0.037 |  |  |  |  |  | inactive: -0.112 | inactive: -0.153 |
| ELF1 (UniProt P32519) | inactive: 0.056 | inactive: -0.05 | inactive: -0.051 | inactive: 0.152 |  | inactive: 0.116 | inactive: 0.185 | inactive: 0.117 |  |  |  | inactive: 0.027 |  | inactive: 0 | inactive: 0.033 | inactive: 0.091 |  | inactive: -0.516 |  |  |
| ENTPD4 (UniProt Q9Y227) | inactive: -0.154 |  | inactive: 0.098 | inactive: 0.066 | inactive: -0.104 | inactive: 0.026 |  | inactive: -0.035 | inactive: -0.06 | inactive: -0.084 | inactive: -0.158 |  | inactive: 0.087 |  | inactive: 0.039 |  |  |  |  |  |
| EGLN1 (UniProt Q9GZT9) | inactive: -0.14 | inactive: 0.009 | inactive: -0.096 | inactive: -0.191 | inactive: 0.066 | inactive: 0.117 | inactive: 0.048 | inactive: 0.078 |  | inactive: -0.004 |  | inactive: -0.006 | inactive: -0.052 | inactive: -0.013 | inactive: 0.048 | inactive: 0.006 | inactive: 0.017 | inactive: -0.001 | inactive: -0.007 | inactive: 0.007 |
| ELAC1 (UniProt Q9H777) | inactive: 0.003 |  | inactive: 0.011 | inactive: -0.023 |  | inactive: -0.067 | inactive: 0.046 | inactive: -0.002 |  | active: -0.488 |  | inactive: 0.079 | inactive: -0.227 | inactive: -0.051 | inactive: -0.049 | inactive: 0.007 |  | inactive: 0.055 | inactive: -0.017 | inactive: 0 |
| EEF1A1 (UniProt P68104) | inactive: -0.069 | inactive: -0.068 | inactive: 0.086 | inactive: -0.044 | inactive: 0.052 | inactive: -0.19 | inactive: 0.131 | inactive: 0.148 |  |  |  | inactive: -0.121 |  | inactive: 0 | inactive: 0.052 | inactive: 0.022 | inactive: 0.089 | inactive: 0.098 | inactive: 0.031 | inactive: 0.165 |
| EGR1 (UniProt P18146) | inactive: -0.128 | inactive: -0.024 | inactive: 0.53 | inactive: -0.06 | inactive: -0.048 |  | inactive: 0.158 | inactive: 0.489 |  | inactive: 0.228 |  |  | inactive: -0.56 | inactive: -0.404 |  | inactive: -0.13 | inactive: -0.027 | inactive: 0.085 | inactive: 0.305 | inactive: -0.241 |
| EID1 (UniProt Q9Y6B2) | inactive: -0.047 |  | inactive: 0.18 | inactive: -0.134 |  |  | inactive: 0.172 | active: 0.83 |  | inactive: -0.104 |  |  | inactive: -0.317 | inactive: 0.019 |  | inactive: -0.107 | inactive: 0.135 | inactive: 0.053 |  |  |
| EIF4ENIF1 isoform 3 (UniProt Q9NRA8) | inactive: 0.002 | inactive: -0.019 | inactive: 0.126 | inactive: 0.029 | inactive: 0.005 | inactive: -0.042 |  | inactive: -0.053 | inactive: -0.028 | inactive: 0.018 | inactive: -0.044 | inactive: -0.071 | inactive: -0.275 | inactive: 0.007 | inactive: -0.002 | inactive: -0.033 | inactive: 0.041 | inactive: -0.108 | inactive: 0.056 | inactive: -0.065 |
| EIF2AK2 (UniProt P19525) | inactive: -0.044 | inactive: 0.063 | inactive: 0.696 | inactive: 0.101 | inactive: 0.086 | inactive: 0.125 |  | inactive: -0.3 | inactive: 0.071 | inactive: -0.006 | inactive: -0.125 | inactive: 0.242 | inactive: 0.073 |  | inactive: -0.126 |  | inactive: 0.15 |  | inactive: -0.198 | inactive: 0.114 |
| ELOVL6 (UniProt Q9H5J4) | inactive: 0.191 | inactive: 0.009 |  | inactive: 0.145 | inactive: 0.067 | inactive: 0.096 | inactive: -0.139 |  | inactive: -0.046 |  | inactive: 0.013 | inactive: -0.045 |  | inactive: -0.146 | inactive: 0.069 | inactive: -0.153 | inactive: -0.074 | inactive: -0.068 | inactive: 0.083 | inactive: 0.036 |
| EIF3G (UniProt K7ER90) | inactive: 0.007 |  | inactive: 0.05 | inactive: 0 | inactive: -0.022 |  | inactive: -0.112 | inactive: 0.028 | inactive: -0.257 |  | inactive: 0.316 | inactive: 0.146 |  |  | inactive: -0.061 |  | inactive: -0.152 |  | inactive: 0.043 | inactive: -0.014 |
